What all share (experiment): proximity ligation
Experiment [1] has as its target T1, Vap33 (endogenous, larval tissues) (Drosophila (endogenous in larval tissues)) (UniProt Q9W4N8).
T1 sequence: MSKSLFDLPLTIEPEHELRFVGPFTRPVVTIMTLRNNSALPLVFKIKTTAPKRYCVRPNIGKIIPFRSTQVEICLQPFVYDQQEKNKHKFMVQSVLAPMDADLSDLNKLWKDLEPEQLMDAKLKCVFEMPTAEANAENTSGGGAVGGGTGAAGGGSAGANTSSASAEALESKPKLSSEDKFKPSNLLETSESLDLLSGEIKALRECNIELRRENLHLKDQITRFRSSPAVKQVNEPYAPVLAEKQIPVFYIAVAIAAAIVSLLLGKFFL

Another experiment deals with T2, Git-RFP (Drosophila) (UniProt Q95RG8).
T2 sequence: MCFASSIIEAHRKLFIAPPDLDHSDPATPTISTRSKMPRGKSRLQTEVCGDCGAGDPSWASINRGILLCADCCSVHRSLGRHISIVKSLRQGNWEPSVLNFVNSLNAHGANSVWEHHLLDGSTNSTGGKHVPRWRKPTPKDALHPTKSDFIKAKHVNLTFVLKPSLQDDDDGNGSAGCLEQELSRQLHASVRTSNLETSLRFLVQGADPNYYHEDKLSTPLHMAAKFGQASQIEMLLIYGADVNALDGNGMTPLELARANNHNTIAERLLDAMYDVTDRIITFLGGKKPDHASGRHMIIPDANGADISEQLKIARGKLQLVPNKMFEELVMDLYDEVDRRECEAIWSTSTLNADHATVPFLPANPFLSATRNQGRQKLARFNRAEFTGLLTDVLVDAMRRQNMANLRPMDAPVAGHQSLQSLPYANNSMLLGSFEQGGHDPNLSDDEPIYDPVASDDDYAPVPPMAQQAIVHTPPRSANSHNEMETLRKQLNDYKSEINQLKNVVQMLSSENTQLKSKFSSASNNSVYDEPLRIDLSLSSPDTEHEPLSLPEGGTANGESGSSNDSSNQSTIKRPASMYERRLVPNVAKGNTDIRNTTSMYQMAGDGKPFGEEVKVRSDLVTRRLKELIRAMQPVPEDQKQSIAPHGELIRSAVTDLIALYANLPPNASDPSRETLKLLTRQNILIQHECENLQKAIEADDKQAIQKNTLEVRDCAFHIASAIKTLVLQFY

Experiment [2] concerns the target T3, atypical protein kinase C (aPKC) (Drosophila (endogenous in larval tissues)) (UniProt A1Z9X0).
T3 sequence: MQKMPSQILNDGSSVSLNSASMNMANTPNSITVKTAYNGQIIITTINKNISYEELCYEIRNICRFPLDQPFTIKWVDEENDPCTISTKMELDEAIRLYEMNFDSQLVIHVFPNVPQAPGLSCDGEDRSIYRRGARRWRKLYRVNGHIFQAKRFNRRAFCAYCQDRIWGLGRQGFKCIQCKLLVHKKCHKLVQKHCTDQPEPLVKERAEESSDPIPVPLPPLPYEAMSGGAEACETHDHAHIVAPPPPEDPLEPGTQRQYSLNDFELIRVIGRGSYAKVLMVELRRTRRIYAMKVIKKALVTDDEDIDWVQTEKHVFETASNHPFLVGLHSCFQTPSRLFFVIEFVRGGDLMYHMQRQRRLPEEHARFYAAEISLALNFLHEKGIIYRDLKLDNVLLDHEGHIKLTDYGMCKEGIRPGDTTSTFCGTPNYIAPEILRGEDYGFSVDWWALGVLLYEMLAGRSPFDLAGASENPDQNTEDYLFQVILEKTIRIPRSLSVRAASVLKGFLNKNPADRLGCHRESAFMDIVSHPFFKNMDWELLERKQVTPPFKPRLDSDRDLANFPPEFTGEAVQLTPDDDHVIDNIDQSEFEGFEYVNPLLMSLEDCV

No constants are given. Whether binding was seen depends on the method and setting. Binding seen in cells or lysates may run through a third protein. Some results given as binding are weak or reduced against the parent protein; the word gives no strength. For part of these data: Sequences can lack the tags named with a protein.

B1: Git-RFP (protein, UniProt Q95RG8 1-731)
chain: T2 sequence
B1: the binding entry in experiment [1] is given as “binds”.

B2: Lgl-GFP (endogenously GFP-tagged Lgl) (protein, UniProt P08111 1-1161)
chain: MLKFIRGKGQQPSADRHRLQKDLFAYRKTAQHGFPHKPSALAYDPVLKLMAIGTQTGALKVFGQPGVELYGQHTLLNNSASELNVQLLEWVYGTGRILSLTAANQLILWEPVGATLLPIKTLPFDGKLKKVSSLCCSLSKDLLWIGTEGGNIYQLDLHTFTIKEPVIYHDVVLEQVPPAYKLNPGAIESIRQLPNSPSKLLVAYNRGLCVLWDFESASVQRAYIAPGHGQSVGLTVNFEGSEFTWYHADGSYATWSIDNPEPPSNVNYVPYGPDPCKSINRLYKGKRRSNDVIVFSGGMPRSAYGDHNCVSVHASDGHKVCLDFTSKVIDFFVTFENNRDVAEVLVVLLEEELCAYDLTDPNICAIKAPYLHSVHASAVTCNYLASEVVQSVYESILRAGDEQDIDYSNISWPITGGTLPDNLEESVEEDATKLYEILLTGHEDGSVKFWDCTGVLLKPIYNFKTSSIFGSESDFRDDAAADMSAEQVDEGEPPFRKSGLFDPYSDDPRLAVKKIAFCPKTGQLIVGGTAGQIVIADFIDLPEKVSLKYISMNLVSDRDGFVWKGHDQLNVRSNLLDGEAIPTTERGVNISGVLQVLPPASITCMALEASWGLVSGGTAHGLVLFDFKNFVPVFHRCTLNPNDLTGAGEQLSRRKSFKKSLRESFRKLRKGRSTRTNQSNQVPTTLEARPVERQIEARCADDGLGSMVRCLLFAKTYVTNVNITSPTLWSATNASTVSVFLLHLPPAQTAATAVPSASGNAPPHMPRRISAQLAKEIQLKHRAPVVGISIFDQAGSPVDQLNAGENGSPPHRVLIASEEQFKVFSLPQLKPINKYKLTANEGARIRRIHFGSFSCRISPETLQSMHGCSPTKSTRSHGDGEADPNISGSLAVSRGDVYNETALICLTNMGDIMVLSVPELKRQLNAAAVRREDINGVSSLCFTNSGEALYMMSSSELQRIALATSRVVQPTGVVPVEPLENEESVLEENDAENNKETYACDEVVNTYEIKNPSGISICTRPAEENVGRNSVQQVNGVNISNSPNQANETISSSIGDITVDSVRDHLNMTTTTLCSINTEETIGRLSVLSTQTNKASTTVNMSEIPNINISNLEDLESKRNTTETSTSSVVIKSIITNISHEKTNGDNKIGTPKTAPEESQF
For the molecule B2, the binding entry (in the experiment with Git-RFP (Drosophila); in experiment [2]) was “binds” throughout.

Source of the values: publication doi:10.1101/2023.07.10.548302.
